Laboratory results as given in the supplement of paper PMC10849652.
Some of the results follow. Residues, ends and D or L forms follow the SMILES beside them. *: point of attachment. Cbz = O=C(OCc1ccccc1)*

Protein sequences, listed by entry. Tags and fused reporters are not part of them. Lines headed by an entry give the natural chain unless they say otherwise; changes in a name come on top.
UniProt P00846: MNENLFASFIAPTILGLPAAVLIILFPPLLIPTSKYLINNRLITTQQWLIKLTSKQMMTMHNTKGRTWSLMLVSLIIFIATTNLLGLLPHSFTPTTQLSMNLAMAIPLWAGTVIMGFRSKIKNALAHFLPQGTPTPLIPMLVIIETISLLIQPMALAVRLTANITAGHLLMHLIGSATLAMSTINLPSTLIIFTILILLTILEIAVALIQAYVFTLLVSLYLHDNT
UniProt Q93083: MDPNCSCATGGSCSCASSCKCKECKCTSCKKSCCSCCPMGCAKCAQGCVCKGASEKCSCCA

Columns and labels:
Assay in all cases: log2 fold change, soluble protein after heating vs DMSO (PISA); higher = thermal stabilisation; K562 cells, 10 uM, 30 min; active = over 0.2 and 3.5 SD of the protein, either way, in both replicates (recomputed)
[1] = compound: C1COCCN1CCN2C3=CC=CC=C3N=C2NC(=O)C4=CC(=CC=C4)[N+](=O)[O-] [IRAK-1-4 Inhibitor I]
Procedure, shortened: (§1)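 Thermal stability values are relative to control samples and come from duplicates. They are expressed as log2 fold changes. For measurement, K562 cells (2×10^6 cells/mL) received 10 μM compound for 30 min, and aliquots were heated for 3 min over 48°C-58°C, pooled, and extracted at 4°C in PBS with 0.5% NP-40. Soluble protein, the supernatant after 21,000xg for 90 min, was quantified by TMTpro 16plex LC-MS/MS with equalised channel sums.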

[2] = compound: C=CC(=O)N1CCC[C@@H](n2nc(-c3ccc(Oc4ccccc4)cc3)c3c(N)ncnc32)C1 [ibrutinib]
Procedure, shortened: as §1

[3] = compound: CC(=O)c1cnc2ccc(-c3cc(Cl)c(O)c(Cl)c3)nc2c1N[C@H]1CC[C@H](CN(C)C)CC1
Procedure, shortened: as §1

[4] = compound: CC(C)(C)Cn1c(N)nc2ccc(-c3[nH]c(C(C)(C)C)nc3-c3ccc(F)cc3)nc21 [ralimetinib]
Procedure, shortened: as §1

[5] = compound: CC(C)(O)CC(=O)NCCn1ccc2ncnc(Nc3ccc(Oc4cccc(C(F)(F)F)c4)c(Cl)c3)c21
Procedure, shortened: as §1

[6] = compound: CC(C)C1=C2N=C(C=C(N2N=C1)NCC3=CC=CC=C3)NCCCCCCN
Procedure, shortened: as §1

[7] = compound: CC(C)C[C@@H](C=O)NC(=O)[C@H](CC(C)C)NC(=O)[C@H](CC(C)C)NC(=O)OCc1ccccc1
Procedure, shortened: as §1

[8] = compound: CC(C)N(C[C@H]1O[C@@H](n2cnc3c(N)ncnc32)[C@H](O)[C@@H]1O)[C@H]1C[C@@H](CCc2nc3cc(C(C)(C)C)ccc3[nH]2)C1 [pinometostat]
Procedure, shortened: as §1

[9] = compound: CC1=C(C2=C(C=C1)C(=O)C3=CC=CC=C3N2CCCN)C
Procedure, shortened: as §1

[10] = compound: CC1=C(C=C(C=C1)NC(=O)C2=CC(=CC=C2)C(C)(C)C#N)NC3=CC4=C(C=C3)N=CN(C4=O)C
Procedure, shortened: as §1

[11] = compound: CC1=C(C=C(C=C1)NC(=O)C2=CC(=CC=C2)N(C)C)NC(=O)C3=CC=C(C=C3)O
Procedure, shortened: as §1

[12] = compound: CC1=CC=C(C=C1)SC2=C3C=C(SC3=CN=C2)C(=O)N
Procedure, shortened: as §1

[13] = compound: CC1=NC(=CC=C1)C2=C(N=C(N2)C(C)(C)C)C3=CC4=NC=CN=C4C=C3
Procedure, shortened: as §1

[14] = compound: CCCCN(Cc1ccc(C(=O)NO)cc1)C(=O)Nc1ccccc1 [Nexturastat A]
Procedure, shortened: as §1

[15] = compound: CCCS(=O)(=O)Nc1ccc(F)c(C(=O)c2c[nH]c3ncc(-c4ccc(Cl)cc4)cc23)c1F [vemurafenib]
Procedure, shortened: as §1

[16] = compound: CCCS(=O)(=O)Nc1ccc(F)c(C(=O)c2c[nH]c3ncc(Cl)cc23)c1F
Procedure, shortened: as §1

[17] = compound: CCCc1cc(C)[nH]c(=O)c1CNC(=O)c1cc(-c2ccnc(N3CCN(C)CC3)c2)cc2c1cnn2C(C)C
Procedure, shortened: as §1

[18] = compound: CCN(CC)Cc1ccc2cc(COC(=O)Nc3ccc(C(=O)NO)cc3)ccc2c1 [givinostat]
Procedure, shortened: as §1

[19] = compound: CCN(CCCOc1ccc2c(Nc3cc(CC(=O)Nc4cccc(F)c4)[nH]n3)ncnc2c1)CCOP(=O)(O)O [barasertib]
Procedure, shortened: as §1

[20] = compound: CC1=C(C(CC(=O)N1)C2=CC=C(C=C2)C(F)(F)F)C(=O)NC3=C(C=C4C(=C3)C=NN4)F
Procedure, shortened: as §1

Measured: log2 fold change

MRPS17 (UniProt Q9Y2R5)
inactive: [1] -0.192 | [2] 0.06 | [3] -0.029 | [4] 0.032 | [5] -0.054 | [6] 0.014 | [7] 0.025 | [8] -0.027 | [9] -0.2 | [10] 0.055 | [11] -0.095 | [12] -0.014 | [13] 0.008 | [14] 0.085 | [15] 0.084 | [16] 0.031 | [17] 0.095 | [18] -0.103 | [19] 0.01

MRPS27 isoform 2 (UniProt Q92552)
inactive: [1] -0.116 | [2] 0.019 | [3] -0.002 | [4] 0.069 | [5] -0.104 | [6] -0.161 | [7] -0.011 | [8] -0.022 | [9] -0.06 | [10] 0.037 | [11] -0.022 | [12] 0.006 | [13] 0.039 | [14] 0.151 | [15] 0.064 | [16] 0.035 | [17] 0.051 | [18] 0.055 | [19] -0.016

MT-ATP6 (UniProt P00846)
inactive: [1] 0 | [2] -0.68 | [3] -0.178 | [4] -0.178 | [5] -0.033 | [6] -0.06 | [7] -0.165 | [8] -0.162 | [9] -0.072 | [10] -0.009 | [11] 0.041 | [12] 0.008 | [13] 0.026 | [14] -0.133 | [15] -0.159 | [16] -0.043 | [17] -0.014 | [18] -0.074 | [19] 0.567

MT1L (UniProt Q93083)
inactive: [3] 0.146 | [4] -0.014 | [6] 0.056 | [7] 0.146 | [20] 0.001 | [9] -0.333 | [11] 0.201 | [12] 0.058 | [16] 0.026 | [17] -0.159 | [18] -0.034
